Measured values from publication doi:10.1101/434159.
Results are given in words; binding and its absence hold for the method and conditions named. Binding seen in cells or lysates may run through a third protein. Some binding calls cover weakened binding; strength is not graded here. For part of these data: Where a sequence is shown, tags or fusion partners need not be part of it. Each block holds one molecule with its values, some of them ahead of it.

Amino acid sequences for entries named in this document (tags omitted).
UniProt Q3TKT4: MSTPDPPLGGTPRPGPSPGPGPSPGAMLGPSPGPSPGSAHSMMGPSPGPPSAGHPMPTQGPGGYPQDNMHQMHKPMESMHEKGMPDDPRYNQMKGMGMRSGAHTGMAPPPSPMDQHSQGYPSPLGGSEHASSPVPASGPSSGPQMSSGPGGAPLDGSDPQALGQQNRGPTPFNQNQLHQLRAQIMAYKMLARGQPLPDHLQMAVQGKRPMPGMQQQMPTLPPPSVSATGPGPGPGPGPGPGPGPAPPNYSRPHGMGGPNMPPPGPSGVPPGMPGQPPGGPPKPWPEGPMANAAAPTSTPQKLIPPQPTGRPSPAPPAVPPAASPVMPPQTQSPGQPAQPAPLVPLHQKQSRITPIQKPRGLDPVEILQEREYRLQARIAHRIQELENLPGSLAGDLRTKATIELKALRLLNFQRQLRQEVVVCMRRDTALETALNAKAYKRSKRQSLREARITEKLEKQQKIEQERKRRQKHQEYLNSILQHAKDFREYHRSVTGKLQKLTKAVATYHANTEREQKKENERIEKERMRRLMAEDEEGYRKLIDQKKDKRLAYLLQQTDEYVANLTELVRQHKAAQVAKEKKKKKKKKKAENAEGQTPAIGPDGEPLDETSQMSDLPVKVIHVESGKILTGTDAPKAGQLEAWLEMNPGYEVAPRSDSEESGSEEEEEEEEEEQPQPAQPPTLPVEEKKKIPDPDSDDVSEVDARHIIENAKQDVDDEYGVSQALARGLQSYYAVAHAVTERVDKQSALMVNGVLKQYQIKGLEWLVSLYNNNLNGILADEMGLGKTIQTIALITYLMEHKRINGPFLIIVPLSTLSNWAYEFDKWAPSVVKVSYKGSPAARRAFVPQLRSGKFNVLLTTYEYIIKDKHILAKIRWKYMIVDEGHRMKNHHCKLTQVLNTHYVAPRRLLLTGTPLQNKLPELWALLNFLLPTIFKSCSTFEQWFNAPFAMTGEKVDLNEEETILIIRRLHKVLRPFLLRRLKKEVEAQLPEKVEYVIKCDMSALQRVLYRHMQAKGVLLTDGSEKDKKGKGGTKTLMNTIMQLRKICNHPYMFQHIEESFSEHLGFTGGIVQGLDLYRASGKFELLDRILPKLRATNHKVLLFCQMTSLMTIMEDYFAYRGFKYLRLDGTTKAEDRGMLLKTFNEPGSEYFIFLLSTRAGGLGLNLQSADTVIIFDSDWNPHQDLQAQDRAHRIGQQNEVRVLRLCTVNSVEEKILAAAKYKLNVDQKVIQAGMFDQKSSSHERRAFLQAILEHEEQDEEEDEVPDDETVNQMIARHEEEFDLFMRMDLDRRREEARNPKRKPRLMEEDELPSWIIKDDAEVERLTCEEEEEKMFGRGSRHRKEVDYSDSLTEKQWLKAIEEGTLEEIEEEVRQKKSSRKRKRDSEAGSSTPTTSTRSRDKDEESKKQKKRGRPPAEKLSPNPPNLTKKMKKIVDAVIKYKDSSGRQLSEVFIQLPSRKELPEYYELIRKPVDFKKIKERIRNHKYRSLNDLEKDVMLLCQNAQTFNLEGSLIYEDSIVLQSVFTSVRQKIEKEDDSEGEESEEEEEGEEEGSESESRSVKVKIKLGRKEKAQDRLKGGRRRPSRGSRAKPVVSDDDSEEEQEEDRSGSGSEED
UniProt P97496: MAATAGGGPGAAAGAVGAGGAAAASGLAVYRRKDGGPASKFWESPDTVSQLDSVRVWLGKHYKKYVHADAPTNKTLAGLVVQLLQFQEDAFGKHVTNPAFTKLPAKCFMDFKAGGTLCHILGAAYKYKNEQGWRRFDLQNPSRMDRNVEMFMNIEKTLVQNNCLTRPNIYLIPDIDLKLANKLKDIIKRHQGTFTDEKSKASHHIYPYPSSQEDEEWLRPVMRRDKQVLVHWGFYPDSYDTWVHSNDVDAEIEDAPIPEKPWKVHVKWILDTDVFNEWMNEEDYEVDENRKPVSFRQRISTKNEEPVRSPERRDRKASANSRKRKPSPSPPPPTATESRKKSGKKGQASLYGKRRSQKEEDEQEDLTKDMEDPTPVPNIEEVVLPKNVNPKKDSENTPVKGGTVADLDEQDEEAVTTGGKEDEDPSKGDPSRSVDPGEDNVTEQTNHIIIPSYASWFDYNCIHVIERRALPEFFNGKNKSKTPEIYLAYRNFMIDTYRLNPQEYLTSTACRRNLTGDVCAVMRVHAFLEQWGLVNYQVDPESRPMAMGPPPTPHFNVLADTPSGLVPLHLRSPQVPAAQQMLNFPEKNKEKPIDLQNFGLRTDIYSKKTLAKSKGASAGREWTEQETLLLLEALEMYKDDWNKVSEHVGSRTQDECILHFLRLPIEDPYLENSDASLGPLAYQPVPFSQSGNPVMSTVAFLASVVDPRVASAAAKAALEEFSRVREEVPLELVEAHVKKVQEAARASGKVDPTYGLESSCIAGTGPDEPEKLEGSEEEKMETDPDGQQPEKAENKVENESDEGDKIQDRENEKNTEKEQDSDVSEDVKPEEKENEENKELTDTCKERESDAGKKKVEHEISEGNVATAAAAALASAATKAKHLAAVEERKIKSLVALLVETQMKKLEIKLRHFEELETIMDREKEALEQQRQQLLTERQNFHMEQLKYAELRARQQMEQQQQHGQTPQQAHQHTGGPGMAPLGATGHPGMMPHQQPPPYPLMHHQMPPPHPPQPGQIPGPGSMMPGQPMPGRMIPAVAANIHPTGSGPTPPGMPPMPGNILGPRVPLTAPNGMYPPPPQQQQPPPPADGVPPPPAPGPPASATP
UniProt P48432: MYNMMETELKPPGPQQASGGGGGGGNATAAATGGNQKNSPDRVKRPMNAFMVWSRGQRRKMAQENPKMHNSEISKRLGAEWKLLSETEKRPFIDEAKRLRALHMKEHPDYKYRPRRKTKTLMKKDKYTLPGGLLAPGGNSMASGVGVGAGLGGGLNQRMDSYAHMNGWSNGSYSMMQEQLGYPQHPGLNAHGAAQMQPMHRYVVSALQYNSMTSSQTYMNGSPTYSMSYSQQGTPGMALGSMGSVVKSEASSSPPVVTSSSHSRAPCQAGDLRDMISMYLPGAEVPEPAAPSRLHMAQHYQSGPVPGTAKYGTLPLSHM
UniProt Q6P9Z1: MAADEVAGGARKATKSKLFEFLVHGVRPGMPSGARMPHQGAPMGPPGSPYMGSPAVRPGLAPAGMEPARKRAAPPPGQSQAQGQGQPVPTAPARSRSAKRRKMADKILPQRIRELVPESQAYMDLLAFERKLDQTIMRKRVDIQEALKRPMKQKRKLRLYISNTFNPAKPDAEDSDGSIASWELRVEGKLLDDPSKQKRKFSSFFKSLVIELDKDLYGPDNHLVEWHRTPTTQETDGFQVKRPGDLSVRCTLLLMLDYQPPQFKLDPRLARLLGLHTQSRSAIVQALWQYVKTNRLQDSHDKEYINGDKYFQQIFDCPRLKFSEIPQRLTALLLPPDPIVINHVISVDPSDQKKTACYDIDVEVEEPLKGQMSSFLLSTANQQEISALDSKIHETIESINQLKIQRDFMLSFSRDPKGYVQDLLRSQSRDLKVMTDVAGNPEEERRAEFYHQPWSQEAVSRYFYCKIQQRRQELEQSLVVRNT
UniProt Q61466: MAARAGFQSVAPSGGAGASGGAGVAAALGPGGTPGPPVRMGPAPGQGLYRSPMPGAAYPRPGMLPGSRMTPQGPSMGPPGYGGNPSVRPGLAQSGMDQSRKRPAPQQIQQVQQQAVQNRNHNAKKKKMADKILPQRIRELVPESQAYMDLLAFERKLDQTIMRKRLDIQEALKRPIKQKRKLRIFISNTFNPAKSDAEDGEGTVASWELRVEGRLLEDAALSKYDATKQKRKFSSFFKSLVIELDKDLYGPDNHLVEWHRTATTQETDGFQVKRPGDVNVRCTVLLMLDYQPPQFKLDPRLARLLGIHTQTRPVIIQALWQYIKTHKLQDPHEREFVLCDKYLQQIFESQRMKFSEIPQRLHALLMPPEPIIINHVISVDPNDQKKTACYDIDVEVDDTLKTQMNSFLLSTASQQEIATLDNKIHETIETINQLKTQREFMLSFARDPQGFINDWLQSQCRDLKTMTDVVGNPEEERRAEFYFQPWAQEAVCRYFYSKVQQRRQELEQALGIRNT
UniProt Q99JR8: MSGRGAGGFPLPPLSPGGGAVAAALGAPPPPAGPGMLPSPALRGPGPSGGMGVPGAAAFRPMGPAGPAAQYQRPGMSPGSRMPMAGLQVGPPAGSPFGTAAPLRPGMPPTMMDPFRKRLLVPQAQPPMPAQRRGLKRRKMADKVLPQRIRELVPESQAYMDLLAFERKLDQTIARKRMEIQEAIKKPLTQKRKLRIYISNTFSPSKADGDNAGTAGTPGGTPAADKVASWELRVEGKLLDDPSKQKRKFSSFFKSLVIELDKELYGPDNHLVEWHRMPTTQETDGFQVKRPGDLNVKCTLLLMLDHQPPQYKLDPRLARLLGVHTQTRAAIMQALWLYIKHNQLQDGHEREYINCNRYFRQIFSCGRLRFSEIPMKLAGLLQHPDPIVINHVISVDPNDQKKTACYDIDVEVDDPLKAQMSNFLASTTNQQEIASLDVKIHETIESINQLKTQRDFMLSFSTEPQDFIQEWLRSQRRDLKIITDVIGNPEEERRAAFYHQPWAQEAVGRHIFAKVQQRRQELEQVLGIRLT

Legend:
Test in all cases: co-IP
[1] = molecular target: Brg1 (mouse (endogenous in embryonic cochlea)) (UniProt Q3TKT4)
[2] = molecular target: T1, 2×HA-3×Flag-Eya1 (knock-in mouse line) (mouse (knock-in mouse line)) (UniProt P97767)
T1 sequence: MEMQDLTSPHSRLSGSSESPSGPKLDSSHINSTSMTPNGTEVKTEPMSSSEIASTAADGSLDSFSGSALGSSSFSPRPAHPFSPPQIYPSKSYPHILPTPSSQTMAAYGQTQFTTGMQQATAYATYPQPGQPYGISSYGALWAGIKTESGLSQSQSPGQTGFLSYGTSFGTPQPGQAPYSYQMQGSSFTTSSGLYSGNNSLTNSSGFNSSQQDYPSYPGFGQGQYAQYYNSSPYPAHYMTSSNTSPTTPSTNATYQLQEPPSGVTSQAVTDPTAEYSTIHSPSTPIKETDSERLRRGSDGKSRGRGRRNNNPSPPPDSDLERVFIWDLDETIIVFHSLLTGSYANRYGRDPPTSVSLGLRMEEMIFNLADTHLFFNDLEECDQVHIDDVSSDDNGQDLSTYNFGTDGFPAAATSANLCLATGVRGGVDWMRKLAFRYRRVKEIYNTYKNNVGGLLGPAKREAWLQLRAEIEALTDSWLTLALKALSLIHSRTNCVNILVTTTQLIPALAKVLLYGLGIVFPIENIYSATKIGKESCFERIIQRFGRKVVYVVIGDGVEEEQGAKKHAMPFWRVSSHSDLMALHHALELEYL

[3] = molecular target: T2, Six1 (mouse (endogenous in embryonic cochlea)) (UniProt Q62231)
T2 sequence: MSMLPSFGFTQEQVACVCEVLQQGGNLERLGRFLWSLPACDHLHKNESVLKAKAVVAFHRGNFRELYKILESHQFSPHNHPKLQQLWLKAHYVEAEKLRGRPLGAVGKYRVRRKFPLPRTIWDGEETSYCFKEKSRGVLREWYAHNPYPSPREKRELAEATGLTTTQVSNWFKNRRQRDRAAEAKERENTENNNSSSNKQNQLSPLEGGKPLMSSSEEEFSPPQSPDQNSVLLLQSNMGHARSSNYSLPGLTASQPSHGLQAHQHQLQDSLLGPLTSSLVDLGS

binding [1]: binds | binding [2]: binds
Molecule: BAF155 (from UniProt P97496 1-1104)

binding [1]: binds
Molecule: Sox2 (from UniProt P48432 1-319)

The next lines start with the molecule.

Molecule: Brg1 (from UniProt Q3TKT4 1-1613)
binding [3]: binds | binding [2]: binds

Molecule: BAF60c (from UniProt Q6P9Z1 1-483)
binding [1]: binds | binding [3]: binds | binding [2]: binds

Molecule: BAF60a (from UniProt Q61466 1-515)
binding [1]: binds | binding [3]: binds | binding [2]: binds

Molecule: BAF60b (from UniProt Q99JR8 1-531)
binding [1]: binds | binding [3]: no binding | binding [2]: no binding

B1: Six1 (protein, UniProt Q62231 1-284)
chain: T2 sequence
binding [2]: binds
